Test results published in article PMC4673491.
No constants are given. Whether binding was seen depends on the method and setting. Binding seen in cells or lysates may run through a third protein. Some entries that bind do so weakly or less than the wild type. Tags and fused reporters may be left off the sequences shown.

Amino acid sequences for entries named in this document (tags omitted). A change or cut given only in a name is not applied to a line headed by its entry.
UniProt P55085: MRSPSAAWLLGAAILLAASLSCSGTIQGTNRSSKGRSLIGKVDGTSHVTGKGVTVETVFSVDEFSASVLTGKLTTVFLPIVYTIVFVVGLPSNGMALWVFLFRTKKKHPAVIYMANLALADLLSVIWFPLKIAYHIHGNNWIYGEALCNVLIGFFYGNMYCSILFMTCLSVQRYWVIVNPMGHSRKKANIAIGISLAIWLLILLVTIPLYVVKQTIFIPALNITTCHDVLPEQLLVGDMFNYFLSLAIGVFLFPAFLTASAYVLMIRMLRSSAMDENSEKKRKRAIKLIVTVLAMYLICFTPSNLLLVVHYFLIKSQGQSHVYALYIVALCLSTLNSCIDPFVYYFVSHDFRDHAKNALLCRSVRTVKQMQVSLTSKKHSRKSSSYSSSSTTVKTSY

Target: T1, GST-PH-Vav3 (UniProt Q9UKW4)
T1 sequence: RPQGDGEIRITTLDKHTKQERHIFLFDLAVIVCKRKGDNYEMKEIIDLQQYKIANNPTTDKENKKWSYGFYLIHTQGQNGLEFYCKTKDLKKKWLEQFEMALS
Test: pull-down; lysates of HEK293T cells overexpressing PAR2 mutants or deletion constructs added to GST-PH-Etk/Bmx, GST-PH-Akt or GST-PH-Vav3; only the target purified

Row | binding | Substance
1 | binds | hPar2-K356Z (from UniProt P55085 26-355) (domain or fragment)
2 | binds | hPar2 K368Z (from UniProt P55085 26-367) (domain or fragment)
